At least one structure is not confirmed: it was looked up by name or label, or the drawing left a doubt.
Test system: progeria senescent fibroblasts (passage 17)
Assay: DNA comet assay
Format: cell-based, human
Conditions: KU-60019 0.5 μM, 4 weeks
Experimental: To determine the extent of recovery of the senescent cells to the DNA damage in accordance with the ATM-kinase inhibitor, the DNA comet assay (Trevigen, 4250-050-K) was carried out according to the protocol of the manufacturer. The principle of the DNA comet assay is based on gel electrophoresis. The damaged DNA moves farther away in the electrophoresis process than the undamaged DNA, resulting in the formation of a comet-tail shape. Afterwards, a slide used herein was stained with cyber green (SYBR Green), so that the tail length of the DNA fragment was measured by using fluorescence microscopy to confirm the extent of the DNA damage. The extent of the DNA damage may be measured as a tail moment value obtained by multiplying tail DNA % by the distance of migration of DNA fragmentation from the nucleus or the tail length. […]
To determine the extent of recovery of the senescent cells to the DNA damage in accordance with the ATM-kinase inhibitor, the DNA comet assay (Trevigen, 4250-050-K) was carried out according to the protocol of the manufacturer. […] Afterwards, a slide used herein was stained with cyber green (SYBR Green), so that the tail length of the DAN fragment was measured by using fluorescence microscopy to confirm the extent of the DNA damage. […]

## C[C@@H]1CN(CC(=O)Nc2ccc3c(c2)Cc2cccc(-c4cc(=O)cc(N5CCOCC5)o4)c2S3)C[C@H](C)O1 [KU-60019, 2-((2S,6R)-2,6-dimethylmorpholino)-N-(5-(6-morpholino-4-oxo-4H-pyran-2-yl)-9H-thioxanthen-2-yl)acetamide]
  DNA damage (tail moment) vs DMSO control: significantly decreased

Reference: patent US9770451B2, “Composition including ATM inhibitor for reducing cellular senescence and use of the composition” (Samsung Electronics Co., Ltd., priority 2014, dated 2017)
